Laboratory results published in patent publication US5024994A (Warner-Lambert Company, priority 1988, dated 1991).
Some peptides are written in HELM: one residue between dots, names in brackets for other building blocks, links after the first $.

Assay: general procedure: solution-phase peptide synthesis; DCC/HOBT
Settings: coupling step

In the case of “PEPTIDE1{[BOC].F.[ARG(NO2)].[STA].L.[NHCH2Ph]}$$$$V2.0”, the step yield is reported as 82%.
